# Data published in patent publication US20230348603A1.
# The chains behind the UniProt entries cited, without tags or fusion partners. Where a name states a change or a piece, a line headed by the entry shows the natural chain unless it says otherwise.
# UniProt Q9Y279: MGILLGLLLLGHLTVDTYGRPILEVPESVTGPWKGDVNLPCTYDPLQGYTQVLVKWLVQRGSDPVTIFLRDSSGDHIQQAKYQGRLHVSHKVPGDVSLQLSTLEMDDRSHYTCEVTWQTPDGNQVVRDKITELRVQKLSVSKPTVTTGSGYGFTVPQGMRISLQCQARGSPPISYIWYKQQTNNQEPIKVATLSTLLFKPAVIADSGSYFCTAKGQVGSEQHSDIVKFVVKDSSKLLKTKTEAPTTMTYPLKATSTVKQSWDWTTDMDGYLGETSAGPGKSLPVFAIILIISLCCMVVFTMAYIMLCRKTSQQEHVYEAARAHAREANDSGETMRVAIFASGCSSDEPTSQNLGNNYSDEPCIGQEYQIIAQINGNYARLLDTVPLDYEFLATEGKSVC
# Changes are numbered by the printed parent chain. Results are given in words; binding and its absence hold for the method and conditions named. Some results given as binding are weak or reduced against the parent protein; the word gives no strength. For some of these results: Where a sequence is shown, tags or fusion partners need not be part of it.
# T1: Cynomolgus Monkey VSIG4-L-His (cynomolgus monkey)
# T1 sequence: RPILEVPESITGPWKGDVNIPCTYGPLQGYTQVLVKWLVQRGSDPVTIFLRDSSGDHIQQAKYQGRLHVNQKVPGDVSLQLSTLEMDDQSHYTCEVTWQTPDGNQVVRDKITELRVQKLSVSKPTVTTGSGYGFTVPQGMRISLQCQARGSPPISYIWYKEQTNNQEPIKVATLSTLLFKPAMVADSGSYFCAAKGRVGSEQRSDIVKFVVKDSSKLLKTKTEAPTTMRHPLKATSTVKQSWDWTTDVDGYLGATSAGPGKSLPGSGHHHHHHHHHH
# B1: 1C6.D6 murine hybridoma antibody (antibody, V domains shown)
# VH: QVQLQQPGAEMVRPGTSVKLSCKASGYTFTSYWMHWVKQRPGQGLEWIGKIDPSHNKTHYIQKFEDKATLTVDKSSSTAYMHLNSLTSEDSAVYYCVTWDGDFLYWGQGTLVTVSA
# VL: NIVLTQSPASLTVSLGQRATISCRASESVDSYGNSFMHWYQQKPGQPPKLLIYITSNLQSGVPARFSGGGSRTDFTLTIDPVEADDAATYYCQQNNEDPWTFGGGTKLEIK
# B2: 16F6.E1 murine hybridoma antibody (antibody, V domains shown)
# VH: QVQLQQPGAEMVRPGASLKLSCKASGYTFTSYWMHWVKQRPGQGLEWIGKIDPSKNTTHYNQNFRDKATLTVDRSSSTAYMQLNSLTSEDSAVYFCVTWDGDFTYWGQGTLVTISA
# VL: B1 VL with A9P, T12A, I54L, T55A, Q59E, G69S, Y91F, Q93H
# Key:
# [1] = target: T1, Cynomolgus Monkey VSIG4-L-His (cynomolgus monkey); test: BLI (Octet)
# [2] = target: Human VSIG4-L-His (human) (UniProt Q9Y279); test: BLI (Octet)
Binder,binding [1],binding [2]
B1,binds,binds
B2,binds,binds
